This experiment concerns the target C-terminal region of TipC (amino acids 2725-3848) fused to GFP (D. discoideum) (UniProt Q55FG3). Kind of experiment: affinity purification with mass spectrometry; GFP-Trap A beads on lysates of D. discoideum tipC- cells expressing TipC^2725-3848-GFP or GFP alone; 10 mM Tris-HCl pH 7.5, 150 mM NaCl, 4 h at 4°C; nano LC-MS/MS.

By UniProt entry, the sequences of proteins in these tests, tags left out. Residues count along the entry.
UniProt Q55FG3, residues 2725-3848: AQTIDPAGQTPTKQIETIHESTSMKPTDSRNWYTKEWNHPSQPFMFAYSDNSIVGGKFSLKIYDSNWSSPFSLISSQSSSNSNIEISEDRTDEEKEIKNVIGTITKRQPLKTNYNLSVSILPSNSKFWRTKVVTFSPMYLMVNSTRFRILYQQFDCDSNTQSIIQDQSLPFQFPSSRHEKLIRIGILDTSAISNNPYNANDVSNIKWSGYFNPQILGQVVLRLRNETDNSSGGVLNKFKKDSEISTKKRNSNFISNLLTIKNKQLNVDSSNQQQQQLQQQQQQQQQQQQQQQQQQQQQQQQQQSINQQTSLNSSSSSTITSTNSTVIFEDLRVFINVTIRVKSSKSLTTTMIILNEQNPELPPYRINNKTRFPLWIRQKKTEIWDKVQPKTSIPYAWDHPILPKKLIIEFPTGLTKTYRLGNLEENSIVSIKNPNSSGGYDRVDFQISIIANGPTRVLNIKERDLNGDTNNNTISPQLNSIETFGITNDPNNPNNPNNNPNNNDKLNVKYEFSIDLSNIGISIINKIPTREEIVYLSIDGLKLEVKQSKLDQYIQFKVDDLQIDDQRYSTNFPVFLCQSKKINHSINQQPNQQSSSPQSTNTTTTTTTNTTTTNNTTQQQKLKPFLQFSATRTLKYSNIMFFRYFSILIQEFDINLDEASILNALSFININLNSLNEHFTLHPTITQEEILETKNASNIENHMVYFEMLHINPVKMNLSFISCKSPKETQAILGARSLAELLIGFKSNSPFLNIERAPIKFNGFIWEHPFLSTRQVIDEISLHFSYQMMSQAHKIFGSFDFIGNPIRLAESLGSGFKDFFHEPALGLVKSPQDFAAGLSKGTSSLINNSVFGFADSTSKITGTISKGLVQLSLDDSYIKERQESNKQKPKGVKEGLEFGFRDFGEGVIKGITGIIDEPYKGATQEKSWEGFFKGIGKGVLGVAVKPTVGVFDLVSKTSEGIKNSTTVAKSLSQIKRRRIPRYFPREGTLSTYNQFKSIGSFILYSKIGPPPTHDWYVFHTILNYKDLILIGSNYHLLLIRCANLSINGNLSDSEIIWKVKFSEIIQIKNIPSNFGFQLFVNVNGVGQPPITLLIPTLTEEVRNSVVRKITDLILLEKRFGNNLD
UniProt P36411: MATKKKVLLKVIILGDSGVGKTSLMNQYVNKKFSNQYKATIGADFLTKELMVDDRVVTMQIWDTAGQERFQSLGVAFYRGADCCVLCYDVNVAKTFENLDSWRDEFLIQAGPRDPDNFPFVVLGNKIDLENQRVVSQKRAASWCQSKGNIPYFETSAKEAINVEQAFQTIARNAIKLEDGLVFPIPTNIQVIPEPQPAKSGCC

No constants are given. Whether binding was seen depends on the method and setting. In cells and extracts the contact can be indirect. A yes stands for co-enrichment or nearness to the bait. Other partners may have been found.

For “Ras-like in rat brain 7A (Rab7A) (from UniProt P36411 1-203)”, the binding entry is reported as “binds”.

The record behind these values is paper PMC6398486.
